Assay [1] concerns the target T1, YAP1C probe (Yap1 C-terminal cysteine-rich domain construct fused to a tandem affinity purification tag) (Saccharomyces cerevisiae) (UniProt P19880).
T1 sequence: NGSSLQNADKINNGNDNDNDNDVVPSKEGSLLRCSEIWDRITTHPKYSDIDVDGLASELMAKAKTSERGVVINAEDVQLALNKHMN
As to the kind of experiment: cross-linking; mixed disulfide formed in the cells between Cys598 of YAP1C and a sulfenylated cysteine (cells untreated or 20 mM H2O2 for 30 min); IgG-Sepharose enrichment, on-bead tryptic digestion, then enrichment of C598SEIWDR disulfide-linked peptides on anti-C598SEIWDR antibody beads; LC-MS/MS, pLink 2, FDR ≤ 1%.

Amino acid sequences for entries named in this document (tags omitted).
UniProt Q9FRL8: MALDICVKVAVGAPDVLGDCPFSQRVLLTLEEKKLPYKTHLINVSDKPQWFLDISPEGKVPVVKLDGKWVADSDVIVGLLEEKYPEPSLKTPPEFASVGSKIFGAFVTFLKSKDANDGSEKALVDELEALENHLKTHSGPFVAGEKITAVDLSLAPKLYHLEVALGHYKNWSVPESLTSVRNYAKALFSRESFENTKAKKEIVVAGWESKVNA

Assay [2] concerns the target T1, YAP1C probe (Yap1 C-terminal cysteine-rich domain construct fused to a tandem affinity purification tag) (Saccharomyces cerevisiae). The assay is described as above. The source holds these as a separate data set.

Read-outs that look alike come from different tables or passages of the source. No constants are given. Whether binding was seen depends on the method and setting. Binding seen in cells or lysates may run through a third protein. Some results given as binding are weak or reduced against the parent protein; the word gives no strength. Sequences can lack the tags named with a protein.

Consider “DEHYDROASCORBATE REDUCTASE 2 (from UniProt Q9FRL8 1-213) (enzyme)”, for which the binding entry in assay [1] is on record as “binds”.

B1: ascorbate peroxidase 1 (enzyme, UniProt Q05431 1-250)
chain: MTKNYPTVSEDYKKAVEKCRRKLRGLIAEKNCAPIMVRLAWHSAGTFDCQSRTGGPFGTMRFDAEQAHGANSGIHIALRLLDPIREQFPTISFADFHQLAGVVAVEVTGGPDIPFHPGREDKPQPPPEGRLPDATKGCDHLRDVFAKQMGLSDKDIVALSGAHTLGRCHKDRSGFEGAWTSNPLIFDNSYFKELLSGEKEGLLQLVSDKALLDDPVFRPLVEKYAADEDAFFADYAEAHMKLSELGFADA
modifications: sulfenylated Cys32 and Cys49, trapped as mixed disulfide with Cys598 of YAP1C
Take B1: the binding result in assay [2] is on record as “binds”.

B2: YAP1C probe (Yap1 C-terminal cysteine-rich domain construct fused to a tandem affinity purification tag) (domain or fragment, UniProt P19880 565-650)
chain: NGSSLQNADKINNGNDNDNDNDVVPSKEGSLLRCSEIWDRITTHPKYSDIDVDGLASELMAKAKTSERGVVINAEDVQLALNKHMN
In the case of B2, the binding result in assay [2] is on record as “no binding”.
